Experimental data: patent US20180251549A1
These are yes or no findings as the source states them, for the method shown. Some binding calls cover weakened binding; strength is not graded here.

Protein sequences, listed by entry. Tags and fused reporters are not part of them. Residues count along the entry.
UniProt Q8TDQ0, residues 22-301: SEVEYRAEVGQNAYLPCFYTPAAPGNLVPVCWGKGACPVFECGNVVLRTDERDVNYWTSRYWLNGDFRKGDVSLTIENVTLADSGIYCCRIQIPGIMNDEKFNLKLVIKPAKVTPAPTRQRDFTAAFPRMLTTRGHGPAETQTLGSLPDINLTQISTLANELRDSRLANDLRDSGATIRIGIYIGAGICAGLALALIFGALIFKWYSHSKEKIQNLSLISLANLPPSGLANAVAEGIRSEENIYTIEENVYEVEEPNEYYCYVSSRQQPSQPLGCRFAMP

Biological target: human TIM3 (human) (UniProt Q8TDQ0)
Assay: identification and selection; method not described

Binder | binding
TIF8 (antibody, V domains shown) VH: EVQLVESGAEVKKPGASVKVSCKASGYTFSSYYIHWVRQAPGQGLEWMGVINPTGGSTHYAEKFQGRVTMTRDTSTSTVYMQLSSLRSEQTAVYYCARDQYGWGNYYYYGMDVWGQGTTVTVSS VL: DIQLTQSPGTLSVSPGERVTLSCRASQSVGDTYLAWYQQKPGQAPRLLIYGASTRATGVPARFSGSGSGTEFTLTISSLQSEQFAVYYCQQYGSSPLTFGGGTKVEIK | binds
TID12 (antibody, V domains shown) VH: QMQLVQSGAEVKKPGASVKVSCKASGYTFTSYGISWVRQAPGQGLEWMGWISAYNGNTNYAQKLQGRVTMTTDTSTSTAYMELRSLRSDDTAVYYCARETGYNWNGLDFDYWGQGTLVTVSS VL: QAGLTQPPSVSAAPGQKVTISCSGSSSNIGNNYVSWYQQLPGTAPKLLIYDNNKRPSGIPDRFSGSKSGTSATLGITGLQTGDEADYYCGTWDSSLSAGEFGGGTKLTVL | binds
TIF3 (antibody, V domains shown) VH: QVQLVQSGSEVKTPGASVKVSCKASGYALSSYDINWVRQAPGQGLEWIGWMNPNSDRRGYAQKFQGRVTMTTDTSISTAYMELSSLTSEQTAMYYCAREKTRGRFDYWGQGTLVTVSS VL: VIWMTQSPSSLSASVGDRVTITCRASQTMNNYLNWYQQKPGKAPKLLIYAASTLQSGVPSRFSGSRSGTEFTLTISGLQPEDFATYYCQQSYSTPTFGQGTKVEIK | binds
TID6 (antibody, V domains shown) VH: EVQLLESGGGVVQPGRSLRLSCAAPGFSFSSYGMHWVRQAPGKGLEWVALISYDGSNKYYADSVKGRFTISRDNSMSTLYLQMNSLRAEDTAVYYCAKPRGYTGYGDYYYGLDVWGQGTTVTVSS VL: QSALTQPPSVSKGLRQTATLTCTGNSNNVGNQGAAWLQQHQGHPPKLLSYRNNNRPSGISERFSASRSGNTASLTITGLQSEQEADYYCSAWDRSLSALVFGGGTKLTVL | binds
TIC4 (antibody, V domains shown) VH: QVQLVQSGGGLVQPGGSLRLSCAASGFSFSTYAMSWVRQAPGKGLEWVSGISGSGRTPYYADSVKGRFTISRDNDKNSLYLQITSLRAEDTAVYYCARNDIFTGSLPDWGQGTLVTVSS VL: SYVLTQPRSVSGSPGQSVTLSCTGTSSDVGGYNYVSWYQQHPGKAPKLMISDVSARPSGISNRFSGSKSGNTASLTISGLQAEDEADYYCSSFTSSSTYVFGAGTKVTVL | binds
TIC8 (antibody, V domains shown) VH: QVQLVQSGAEVKKPGASVKVSCKASGYTFSNYEINWVRQATGQGLEWMGWMNPNSGKIGYEQKFQGRVTMTRNTSISSAYMELSSLRSDDTAVYYCARGNGDLGAADYWGQGTLVTVSS VL: VIWMTQSPSSLSASVGDRVTITCRASQSIGRYLNWYQQKPGKAPKLLIYAASNLQSGVPSRFSGSGSGTDFSVTISSLQPEDFATYYCQQSYSTPRTFGQGTKLEIK | binds
TID10 (antibody, V domains shown) VH: QVQLVESGGGLVQPGGSLRLSCAASGFPFNTYWMNWVRQAPGKGLEWVANINPDGSEKYYLDSVKGRFTISRDNAKNSLFLQMNSLRAEDTAVYYCGVVVWGRGTTVTVSS VL: DIVMTQSPLSLPVTLGQPASISCRSSQSLVHSDGNTYLNWFQQRPGQSPRRLIYRVSNRDSGVPDRFSGSGSGTDFTLKISRVEAEDVGIYYCMQSTHWPLTFGQGTKVEIK | binds
TIE7 (antibody, V domains shown) VH: EVQLVESGGGLAEDGGSLTLSCAASGFTFGNHAMRWVRQAPGKGLEWISSISENSRNTFYSDSVKGRFTISRDNSRNTLYLQMNSLRAEDTAVYYCARERGHSYGYGYWGQGTLVTVSS VL: DVVMTQSPLSLPVTLGQPASISCRSSQSLVHSDGNTYLNWFHQRPGQSPRRLIYKVSNRDSGVPDRFSGSGSGTDFTLKISRVEAEDVGVYYCMQSTQWPLTFGQGTKVEIK | binds
TIA1 (antibody, V domains shown) VH: QMQLVQSGGEVKKPGASVKVSCKTSGYRFTSYGISWVRQAPGQGLEWMGWISGYNGETNYAETLQGRLTLTTDTSTSTAYMELGSLRPDDTAVYYCTRDGHSPYFDYWGQGTLVTVSS VL: QAVLTQPASVSGSPGQSVTISCTGTSSDVGGYNYVSWYQQHPGKAPKLMIYEVSKRPSGIPERFSGSNSGNTATLTISRVEAGDEADYYCQVWDSSSDHWVFGRGTKLTVL | binds
TIC5 (antibody, V domains shown) VH: EVQLVESGGGLVKPGGSLRLSCTGSGFSLSNYYMTWIRQTPERGLEWMSYLSGSGNLISYADSIKGRFTISRDSAENSLSLQMDSLRVEDTAVYYCAREYYGTFDYWGQGTLVTVSS VL: AIQLTQSPSTLSASVGDRVTITCRASQTISTWLAWYQQKPGKAPKLLIYKASTLETGVPSRFSGSGSGTEFTLTISSLQPEDFATYFCQQSYSTPYTFGQGTKLEIK | binds
TIE9 (antibody, V domains shown) VH: QVQLQQSGPGLVKPSQSLSLACAISGDSVSSNSAAWNWIRQSPSRGLEWLGRTYYRSKWYTDYAVSLKSRITVSVDTSKNQFSLQLNSVTPEDTAVYYCATGGLNYGYFDSWGRGTLVTVSS VL: QSALTQPPSASGSPGQSVTISCTGTSSDVGGYKYVSWYQQHPGKAPKLMIYDVSNRPSGVSNRFSGSKSGNTASLTISGLQAEDEADYYCSSYTSSSAYVFGTGTKVTVL | binds
TIE3 (antibody, V domains shown) VH: QMQLVQSGAEVKKPGASVKVSCKASGYTFTNYYMHWVRQAPGQGLEWMGWINPNSDNTAYAQKFQGRVTMTRNTSISTVYMELSSLRSEQTAVYYCARGDSTFGYMDVWGKGTTVTVSS VL: QSVLTQPPSVSGAPGQRVTISCTGSSSNIAAHYVHWYQQLPGTAPKLLIFGNNNRPSGVPDRFSGSKSGTSASLAISGLRSEQEADYYCAAWDDSLSGWVFGGGTQLTVL | binds
TIC11 (antibody, V domains shown) VH: EVQLVESGGGLIQPGESLRLSCAVSGFTVRGNYVAWVRQAPGKGLEWVATINGGGSPYYADSVKGRFTISRDDSKNTVDLQMNILRVEDTAIYYCARDTYCTAGICPSSPVWGQGTTVTVSS VL: QAVLTQPPSVSGAPGQRVTISCTGSSSNIGAGYDVHWYQQLPGTAPKLLIYGNSNRPSGVPDRFSGSKSGTSASLAITGLQAEDEAVYFCQSHDTSVTGVVFGGGTKVTVL | binds
TID1 (antibody, V domains shown) VH: QVQLVESGGGLVKPGGSLRLSCAASGFTFSSYSMNWVRQAPGKGLEWVSSISSSSSYIYYADSVKGRFTISRDNAKNSLYLQMNSLRAEDTAVYYCASGDHMDVWGQGTTVTVSS VL: QPVLTQPPSASGTPGQRVTISCSGSSSNVGTNYVYWYQQLPGTAPKLLTHINNQRPSGVPDRFSGSKSGTSASLAISGLRSEQEADYYCAAWDATLSAWVFGGGTKLTVL | binds
TIA6 (antibody, V domains shown) VH: QVQLVQSGAEVKKPGASVKVSCKASGYTFTSYGISWVRQAPGQGLEWMGWISAYNGNTNYAQKLQGRVTMTTDTSTSTAYMELRSLRSDDTAVYYCAKGDYFDYWGQGTLVTVSS VL: SYELMQPASVSGSPGQSITISCTGTSYDVGRYNYVSWYQQHPGKAPKLIIYGVSSRPAGASNRFSGSKSGNTASLTISGLQTEDEADYYCSSYTSSDAYVFGTGTKLTVL | binds

More lines, now with the values ahead:

binding | Binder
binds | TIH1 (antibody, V domains shown) VH: QVQLVESGGGLVQPGGSLRLSCAASGFIFSDYFMTWMRQAPGKGLEWVAYIGDRATPIRYADSVKGRFTISRDNANNSVYLQMNSLGVEDTAVYYCARGGLSTDYWGQGTLVTVSS VL: LPVLTQPPSASGTPGQRVTISCSGSSSNIGSNTVNWYQRLPGTAPKLLIYGNSNRPSGVPDRFSGSKSGTSASLAITGLQAEDEADYYCQSYDSSLSGSTVFGGGTKLTVL
binds | TIG1 (antibody, V domains shown) VH: QVQLVQSGAEVKKPGASVKVSCKASGYTFTSYYIHWVRQAPGQGLEWMGVINPTGGSTHYAEKFQGRVTMTRDTSTSTVYMELSSLRSDDTAVYYCARDHYGWGNYYYYGMDVWGQGTTVTVSS VL: AIQMTQSPGTLSLSPGERATLSCRASQSVSSSYLAWYQQKPGQAPRLLIYGASSRATGIPDRFSGSGSGTDFTLTISRLEPEDFAVYYCQQYENSPLTFGGGTKVEIK
binds | TIH5 (antibody, V domains shown) VH: QVQLVESGGGLVKPGGSLRLSCAASGFTFSDYYMSWIRQAPGKGLEWVSSISNSGSTIYYADSVKGRFTISRDNAKNSLYLQLNSLRDDDTAVYYCARNWQGADYGMDVWGQGTTVTVSS VL: DIVMTQSPSSLSASVGDRVTITCRASQNISSYLNWYQQKPGRAPKLLIYAASSLQSGVPSRFSGSGSGTDFTLTISSLQPEDFATYYCQQSYSTPLTFGGGTKVEIK
binds | TIG6 (antibody, V domains shown) VH: QVQLVESGGALVQPGGSLRLSCAASGFTFSNDWMSWVRQAPGKGLEWVANINQDGSEKNYVDSVKGRFTISRDNAKNSLYLQMNSLRGDDTAVYYCARGSGSSWFIWGQGTLVTVSS VL: EIVLTQSPLSLPVTLGQPASISCRSSQSLVHGSGNTYLNWFQQRPGQSPRRLIYEVSNRDSGVPDRFSGSGSGTDFTLKISRVEAEDVGVYYCMQSSFWPLTFGGGTKVEIK
binds | TIG10 (antibody, V domains shown) VH: EVQLVESGAEVRKPGASVKISCKTPGYSFTERSIHWVRQAPGQGLEWIGRTIPTLEMASYAQKFQGRVTISADKSTRTGYMELRDLRSEQTAVYYCSTQTPSYTDHWGQGTLVTVSS VL: EIVLTQSPSSLSVTLGQPASISCRSSQSLVHRDGNTYLNWFQQRPGQSPRRLIYRVSNRDSGVPDRFSGSGSGTDFTLKISRVEAEDVGVYYCMQSTQPPLTFGGGTKVEIK
binds | TIG3 (antibody, V domains shown) VH: QVQLQQWGAGLLKPSETLSLTCAVSGGSFSGYYWSWIRQTPGKGLEWMAEINHSGDTDYNPSLKSRVTISVDTSKNQFSLNLTSVTAADTAVYFCARGSRRGRYFPQPFDFWGQGTLVTVSS VL: SSELTQDPAVSVALGQTVRITCQGDSLRSYYASWYQQKPGQAPVLVIYGKNNRPSGIPDRFSGSSSGNTASLTITGAQAEDEADYYCNSRDSSGNHVVFGGGTKLTVL
binds | TIG9 (antibody, V domains shown) VH: EVQLVQSGAEVKKPGASVKVSCKASGYTFTDYYIHWVRQAPGQGLEWMGWINANSGATNYAQNFQGRVTMTRDTSIRSAYMELSNLTSDDTAVYYCARDRATTPSFDYWGQGTLVTVSS VL: AIQLTQSPSSLSAPVGDRVTIACRASQTIGHYLNWYQQKSGKAPKLLIYTATSLQSGVPSRFSGSGYGTDFTLTIGNLQPEDSATYYCQQSFGIPYTFGQGTKVDIK
